Experimental data: patent US20230090311A1 (THE UNIVERSITY OF QUEENSLAND, priority 2020, published 2023)
End groups of sequences in plain letters are not given here.

Tests used:
[1] = Fmoc solid-phase peptide synthesis; rink amide MBHA; HATU/DIPEA; conditions: whole synthesis, scale 0.1 mmol
[2] = solid-phase peptide synthesis; conditions: whole synthesis, scale of the general procedure 0.1 mmol, 0.2 mmol; for final HPLC purity: analytical RP-HPLC, detection at 214 nm

In the case of 559FLPFQQFGRDIADT572, the isolated yield [1] is reported as 80% and the “final HPLC purity” value [2] is reported as no less than 99%.
In the case of 623AIHADQLTPTWRVYSTG639, the isolated yield [1] is reported as 75% and the “final HPLC purity” value [2] is reported as no less than 99%.
In the case of AKFVAAWTLKAAAEVLTRRQSQDPKYVTQRIS, the “final HPLC purity” value [2] is reported as 99% and the isolated yield [2] is reported as 16%.
In the case of “AKFVAAWTLKAAAQAEDKVKQSREAKKQVEKALKQLEDKVQ”, the “final HPLC purity” value [2] is reported as 99% and the isolated yield [2] is reported as 18%.
With “Ac-(Phe-Leu-Ala)5-PADRE-J8 (FLAFLAFLAFLAFLAAKFVAAWTLKAAAQAEDKVKQSREAKKQVEKALKQLEDKVQ; N-terminal acetyl; Immunogenic agent incorporating phenylalanine- leucine-alanine repeat hydrophobic peptide, PADRE and J8.)” the “final HPLC purity” value ([2]; run 1) was 97%, the “final HPLC purity” value ([2]; run 2) was 98% and the “final HPLC purity” value ([2]; run 3) was no less than 99%. It also gave an isolated yield ([2]; run 1) of 19%, an isolated yield ([2]; run 2) of 15% and an isolated yield ([2]; run 3) of 34%.
With “Ac-(Ser)15-PADRE-J8 (SSSSSSSSSSSSSSSAKFVAAWTLKAAAQAEDKVKQSREAKKQVEKALKQLEDKVQ; N-terminal acetyl; Immunogenic agent incorporating polyserine hydrophobic peptide, PADRE and J8.)” the “final HPLC purity” value [2] was 96%, the isolated yield ([2]; run 1) was 16% and the isolated yield ([2]; run 2) was 15%.
With DNGKAIYERARERALQELGP the “final HPLC purity” value [2] was 99% and the isolated yield [2] was 16%.
For EVLTRRQSQDPKYVTQRIS, the “final HPLC purity” value [2] was 99% and the isolated yield [2] was 16%.
In the case of LLLLLLLLLLAKFVAAWTLKAAA, the “final HPLC purity” value [2] is reported as no less than 99% and the isolated yield [2] is reported as 45%.
With “LLLLLLLLLLAKFVAAWTLKAAAEVLTRRQSQDPKYVTQRIS” the “final HPLC purity” value [2] was 99%.
For LLLLLLLLLLQAEPDRAHYNIVTF, the “final HPLC purity” value ([1]; analytical RP-HPLC, detection at 214 nm) was greater than 95% and the isolated yield [1] was 32%.
Work on QAEDKVKQSREAKKQVEKALKQLEDKVQ yielded an isolated yield [2] of 20%.
